Results are given in words; binding and its absence hold for the method and conditions named. For part of these data: In cells and extracts the contact can be indirect. Some results given as binding are weak or reduced against the parent protein; the word gives no strength. Where a sequence is shown, tags or fusion partners need not be part of it.
T1: TOP2 fused to the N-terminal or the C-terminal half of Renilla luciferase (UniProt Q949P2)
T1 sequence: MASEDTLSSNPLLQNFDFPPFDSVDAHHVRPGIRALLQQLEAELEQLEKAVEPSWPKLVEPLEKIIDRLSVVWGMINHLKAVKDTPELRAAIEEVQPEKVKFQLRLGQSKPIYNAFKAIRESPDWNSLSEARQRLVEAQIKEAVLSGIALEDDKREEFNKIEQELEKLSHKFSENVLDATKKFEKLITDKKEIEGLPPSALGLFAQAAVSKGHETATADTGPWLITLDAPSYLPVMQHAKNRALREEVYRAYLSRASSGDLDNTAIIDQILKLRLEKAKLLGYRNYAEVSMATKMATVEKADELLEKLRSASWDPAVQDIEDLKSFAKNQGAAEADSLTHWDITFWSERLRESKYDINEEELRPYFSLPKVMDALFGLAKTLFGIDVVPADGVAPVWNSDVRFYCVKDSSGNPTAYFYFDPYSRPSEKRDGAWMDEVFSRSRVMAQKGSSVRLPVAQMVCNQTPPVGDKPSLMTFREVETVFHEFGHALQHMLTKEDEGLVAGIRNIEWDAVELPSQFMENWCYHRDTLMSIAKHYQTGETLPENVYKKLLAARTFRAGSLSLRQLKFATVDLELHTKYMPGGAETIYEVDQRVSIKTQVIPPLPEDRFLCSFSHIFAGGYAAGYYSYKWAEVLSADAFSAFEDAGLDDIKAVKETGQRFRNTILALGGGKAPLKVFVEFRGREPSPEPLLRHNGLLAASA


Experiments:
[1] = biological target: TOP1 fused to the N-terminal or the C-terminal half of Renilla luciferase (UniProt Q94AM1); assay: split reporter; split Renilla luciferase complementation in Arabidopsis protoplasts co-transformed with NLuc and CLuc fusions; luminescence read 12-16 h after transformation; with or without 100 or 200 uM SA (3 h)
[2] = biological target: T1, TOP2 fused to the N-terminal or the C-terminal half of Renilla luciferase; assay: as above
full length TOP2-His = full length TOP2-His (UniProt Q949P2); assay: SEC; Superdex 200 gel filtration of cobalt-column purified His-tagged protein after incubation with 500 uM DTT overnight; both purified

| binding [1] | binding [2] | binding (full length TOP2-His) | Binder |
| --- | --- | --- | --- |
| binds | binds |  | TOP1 fused to the N-terminal or the C-terminal half of Renilla luciferase (enzyme, UniProt Q94AM1 83-791) AAAVESVVSDETLSSNPLLQDFDFPPFDSVDASHVRPGIRALLQHLEAELEELEKSVEPTWPKLVEPLEKIVDRLTVVWGMINHLKAVKDTPELRAAIEDVQPEKVKFQLRLGQSKPIYNAFKAIRESPDWSSLSEARQRLVEAQIKEAVLIGIALDDEKREEFNKIEQELEKLSHKFSENVLDATKKFEKLITDKKEIEGLPPSALGLFAQAAVSKGHENATAENGPWIITLDAPSYLPVMQHAKNRALREEVYRAYLSRASSGDLDNTAIIDQILKLRLEKAKLLGYNNYAEVSMAMKMATVEKAAELLEKLRSASWDAAVQDMEDLKSFAKNQGAAESDSMTHWDTTFWSERLRESKYDINEEELRPYFSLPKVMDGLFSLAKTLFGIDIEPADGLAPVWNNDVRFYRVKDSSGNPIAYFYFDPYSRPSEKRGGAWMDEVVSRSRVMAQKGSSVRLPVAHMVCNQTPPVGDKPSLMTFREVETVFHEFGHALQHMLTKQDEGLVAGIRNIEWDAVELPSQFMENWCYHRDTLMSIAKHYETGETLPEEVYKKLLAARTFRAGSFSLRQLKFASVDLELHTKYVPGGPESIYDVDQRVSVKTQVIPPLPEDRFLCSFSHIFAGGYAAGYYSYKWAEVLSADAFSAFEDAGLDDIKAVKETGQRFRNTILALGGGKAPLKVFVEFRGREPSPEPLLRHNGLLAASASA |
|  |  | binds weakly | full length TOP2-His (enzyme, UniProt Q949P2 1-701) MASEDTLSSNPLLQNFDFPPFDSVDAHHVRPGIRALLQQLEAELEQLEKAVEPSWPKLVEPLEKIIDRLSVVWGMINHLKAVKDTPELRAAIEEVQPEKVKFQLRLGQSKPIYNAFKAIRESPDWNSLSEARQRLVEAQIKEAVLSGIALEDDKREEFNKIEQELEKLSHKFSENVLDATKKFEKLITDKKEIEGLPPSALGLFAQAAVSKGHETATADTGPWLITLDAPSYLPVMQHAKNRALREEVYRAYLSRASSGDLDNTAIIDQILKLRLEKAKLLGYRNYAEVSMATKMATVEKADELLEKLRSASWDPAVQDIEDLKSFAKNQGAAEADSLTHWDITFWSERLRESKYDINEEELRPYFSLPKVMDALFGLAKTLFGIDVVPADGVAPVWNSDVRFYCVKDSSGNPTAYFYFDPYSRPSEKRDGAWMDEVFSRSRVMAQKGSSVRLPVAQMVCNQTPPVGDKPSLMTFREVETVFHEFGHALQHMLTKEDEGLVAGIRNIEWDAVELPSQFMENWCYHRDTLMSIAKHYQTGETLPENVYKKLLAARTFRAGSLSLRQLKFATVDLELHTKYMPGGAETIYEVDQRVSIKTQVIPPLPEDRFLCSFSHIFAGGYAAGYYSYKWAEVLSADAFSAFEDAGLDDIKAVKETGQRFRNTILALGGGKAPLKVFVEFRGREPSPEPLLRHNGLLAASA |

From PMC4434903
